This is an account of results in article PMC3139607.

Results are given in words; binding and its absence hold for the method and conditions named. Some entries that bind do so weakly or less than the wild type.

Assay [1] addresses membrane-expressed human CD4 (human (endogenous in PM-1)) (UniProt P01730). Nature of the assay: flow cytometry on cells; 500,000 cells per sample, 20 min on ice with 1 µg MAb; fluorescein-conjugated anti-mouse IgG; PM-1 cells treated or not with recombinant gp120; RK13 cells expressing Ba-L Env treated or not with 2D-CD4 or CD4-M3; only the binder purified. On the technique in general: In flow cytometry, cells or beads pass a laser one at a time.

Assay [2] deals with membrane CD4 on PM-1 cells pre-treated with recombinant gp120 IIIB (human (endogenous in PM-1) | HIV-1 isolate IIIB) (UniProt P01730). Described as above.

B1: MAb DB81 (antibody, V domains shown)
VH: EVQLQQSGPELVKPGASVKISCKASGYSFTDYTMLWVKQSHGKSLEWIGNINPYYDTTTYNLNFKGKATMTVDKSSSTAYMQLNSLTSEDSAVYYCAREGDYGHPFAYWGQGTLVTVSS
VL: DIVMTQSHKFMSTSVGDRVSITCKASQDVSTTVAWYQQKPGQSPKLLIYSASYRYTGVPDRFTGSGSGTDFTFTISSVQAEDLAVYYCQQHYSTPPTFGGGTKLEIR
B1: the binding entry in assay [1] and in assay [2] was “binds” throughout.
